PubChem BioAssay AID1053208, Peter MacCallum Cancer Centre, 2014
The deposit covers about 17,000 reagents; below is a random part of them. 788 of all reagents (4.7%) count as active. 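Calls rest on z-score classes alone; an extra cut-off of viability at most 70% of control was not applied to them.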 Not all columns of the deposit are shown. No sequences are given here.

- Screen: 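Genes whose silencing cuts survival of bone tumour cells only with doxorubicin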 (primary screen)
- Cells: mouse osteosarcoma cells, early-passage culture from an engineered mouse model of fibroblastic bone tumour
- Knock-down reagent: siRNA pool against mouse genes, 40 nM
- Duration: about 120 h (48 h before drug, then 72 h with drug)
- Challenge: doxorubicin 100 nM for 72 h, roughly 30-40% inhibitory dose
- Measured: 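Viability read as ATP luminescence after 72 h of 100 nM doxorubicin or none, duplicate wells averaged, scaled to non-targeting siRNA, then expressed as robust z-scores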
- Direction: viability z-score with doxorubicin: higher = more viable cells under doxorubicin; viability z-score without drug: higher = more viable cells with knock-down alone
- Active means: 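Called active if knock-down leaves viability unchanged without drug (z within -2 to 2) but lowers it with doxorubicin (z at or under -2)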

| target | combined z-score class | viability z-score with doxorubicin | viability z-score without drug | Call |
| --- | --- | --- | --- | --- |
| Epha5 | no change with or without drug | -0.9 | -0.17 | inactive |
| Plcxd1 | no change with or without drug | -0.67 | -0.67 | inactive |
| Krt12 | no change with or without drug | -0.9 | -0.51 | inactive |
| Nkx3-2 | no change with or without drug | 1.57 | 0.67 | inactive |
| Zfp810 | no change with or without drug | 0 | 0.17 | inactive |
| Arl4c | no change with or without drug | -0.22 | -0.67 | inactive |
| Tff2 | no change with or without drug | 1.69 | 0.67 | inactive |
| Slc12a1 | no change with or without drug | -1.35 | 0.84 | inactive |
| Slfnl1 | no change with or without drug | 0.67 | 0.67 | inactive |
| Lefty1 | high cell count with and without drug | 2.14 | 2.19 | inactive |
| Or8b12b | no change with or without drug | -1.35 | -0.17 | inactive |
| Ddx6 | no change with or without drug | 0.34 | -0.84 | inactive |
| Sirt6 | no change with or without drug | 0.9 | 0.17 | inactive |
| Scn11a | no change with or without drug | -0.22 | -1.52 | inactive |
| Kansl2 | no change with or without drug | 1.12 | 1.35 | inactive |
| Polg | no change with or without drug | 1.12 | 0.51 | inactive |
| Hpd | low cell count without drug only | -0.22 | -2.02 | inactive |
| Defb12 | no change with or without drug | 0 | 0.84 | inactive |
| Slc6a2 | no change with or without drug | 0.45 | 0.17 | inactive |
| Fgf23 | no change with or without drug | -1.35 | -1.18 | inactive |
| Timm8a1 | no change with or without drug | 0.22 | 0.84 | inactive |
| Gnb3 | no change with or without drug | 0.22 | 1.01 | inactive |
| Crygc | no change with or without drug | 0.11 | 0.84 | inactive |
| Serpina3m | no change with or without drug | -1.01 | -0.51 | inactive |
| Or10s1 | no change with or without drug | -0.9 | -0.51 | inactive |
| Trmu | no change with or without drug | 0 | 0 | inactive |
| Csnk2a1 | no change with or without drug | -0.22 | 1.01 | inactive |
| 5830402J09 | no change with or without drug | 0.22 | -0.17 | inactive |
| Abhd12 | no change with or without drug | 0 | 0.84 | inactive |
| Mael | no change with or without drug | 1.12 | 0.84 | inactive |
| Htr1f | no change with or without drug | 1.35 | -0.34 | inactive |
| Hoxd9 | no change with or without drug | 0.45 | -0.84 | inactive |
| D6Ertd160e | no change with or without drug | -0.67 | 0.51 | inactive |
| Or5m5 | low cell count without drug only | -0.45 | -2.53 | inactive |
| Or51q1c | no change with or without drug | 0.67 | -0.34 | inactive |
| Hagh | no change with or without drug | -0.67 | -0.67 | inactive |
| 4933427D06Rik | no change with or without drug | -0.9 | -1.01 | inactive |
| Gas6 | no change with or without drug | 0.11 | -0.17 | inactive |
| Shcbp1 | no change with or without drug | -0.45 | 0.34 | inactive |
| Ppp1r12b | no change with or without drug | -1.35 | -0.51 | inactive |
| Trp53i11 | no change with or without drug | -0.9 | 1.18 | inactive |
| Hnrnpa2b1 | no change with or without drug | 0 | 0 | inactive |
| Il22b | no change with or without drug | -0.22 | -0.17 | inactive |
| Siglecf | no change with or without drug | -0.67 | 0.34 | inactive |
| Or5b95 | no change with or without drug | -1.24 | -1.52 | inactive |
| 4930483J18Rik | low cell count with doxorubicin only | -2.25 | -0.17 | active |
| Gpsm2 | no change with or without drug | 0.34 | 0.51 | inactive |
| Amd1 | no change with or without drug | 0 | -0.34 | inactive |
| Ce9 | no change with or without drug | 0.9 | 0.84 | inactive |
| A630026L20 | no change with or without drug | -0.67 | -0.51 | inactive |

Copied from the listing (3 entries):
| target | combined z-score class | viability z-score with doxorubicin | viability z-score without drug | Call |
| --- | --- | --- | --- | --- |
| Htr1f | no change with or without drug | 1.35 | -0.34 | inactive |
| Hoxd9 | no change with or without drug | 0.45 | -0.84 | inactive |
| D6Ertd160e | no change with or without drug | -0.67 | 0.51 | inactive |
